The values below come from publication PMC10308901.

Positions count from the first letter of the chain named. These are yes or no findings as the source states them, for the method shown.

Holding throughout (experiment): SEC; both purified
Test [1] deals with GroEL2 sybody number 2.
In test [2] the target is GroEL1 sybody number 12.
The target in test [3] is GroEL2 sybody number 16.
The target of test [4] is GroEL2 sybody number 28.
The target of test [5] is GroEL2 sybody number 32.
Test [6] deals with GroEL1 sybody number 31.
For test [7], the target named is GroEL1 sybody number 18.
Test [8] addresses GroEL2 sybody number 1.
Test [9] addresses GroEL1 sybody number 9.
The target in test [10] is GroEL2 sybody number 3.
In test [11] the target is GroEL2 sybody number 9.
Test [12] deals with GroEL2 sybody number 31.
For test [13], the target named is GroEL2 sybody number 33.
The target in test [14] is GroEL2 sybody number 22.
The target in test [15] is GroEL1 sybody number 1.
Test [16] deals with GroEL2 sybody number 7.
Test [17] concerns the target GroEL2 sybody number 8.
In test [18] the target is GroEL1 sybody number 5.
For test [19], the target named is GroEL2 sybody number 11.
The target of test [20] is GroEL2 sybody number 27.
In test [21] the target is GroEL2 sybody number 10.
Test [22] addresses GroEL2 sybody number 19.

B1: GroEL2 sybody number 2 (VHH)
VHH: QVQLVESGGGLVQAGGSLRLSCAASGFPVSSSTMTWYRQAPGKEREWVAAIDSVGNETYYADSVKGRFTISRDNAKNTVYLQMNSLKPEDTAVYYCAVFVGSYYGQGTQVTVSA
In the case of B1, the binding result in test [1] is on record as “no binding”.

B2: GroEL1 sybody number 12 (VHH)
VHH: QVQLVESGGGLVQAGGSLRLSCAASGFPVTQAWMEWYRQAPGKEREWVAAIFSHGGGTFYADSVKGRFTISRDNAKNTVYLQMNSLKPEDTAVYYCNVKDTGERDNWYDYWGQGTQVTVSA
Consider B2, for which the binding result in test [2] is on record as “no binding”.

B3: GroEL2 sybody number 16 (VHH)
VHH: QVQLVESGGGLVQAGGSLRLSCAASGFPVSSSTMTWYRQAPGKEREWVAAIESWGAYTWYADSVKGRFTISRDNAKNTVYLQMNSLKPEDTAVYYCNVKDYDGVADVIYDYWGQGTQVTVSA
For the molecule B3, in test [3], the binding result is listed as “no binding”.

B4: GroEL2 sybody number 28 (VHH)
VHH: QVQLVESGGGLVQAGGSLRLSCAASGFPVDAYWMYWYRQAPGKEREWVAAIMSSGHGTWYADSVKGRFTISRDNAKNTVYLQMNSLKPEDTAVYSCNVKDKGAQAAWYDYWGQGTQVTVSA
With B4, in test [4], the binding entry is “no binding”.

B5: GroEL2 sybody number 32 (VHH)
VHH: QVQLVESGGGLVQAGGSLRLSCAASGFPVVSQFMEWHRQAPGKEREWVAAIDSTGYSTFYADSVKGRFTISRDNAKNTVYLQMNSLKPEDTAVYYCNVKDAGEGQEQYDYWGQGTQVTVSA
Take B5: the binding result in test [5] is recorded as “no binding”.

B6: GroEL1 sybody number 31 (VHH)
VHH: QVQLVESGGGSVQAGGSLRLSCAASGTIYKIYYLGWFRQAPGKEREGVAALNTFSGGTYYADSVKGRFTVSLDNAKNTVYLQMNSLKPEDTALYYCAAAYDMEGYAWPLYWWHYEYWGQGTQVTVSA
For the molecule B6, the binding entry in test [6] is “no binding”.

B7: GroEL1 sybody number 18 (VHH)
VHH: QVQLVESGGGLVQAGGSLRLSCAASGFPVKTKHMYWYRQAPGKEREWVAAITSIGMITAYADSVKGRFTISRDNAKNTVYLQMNSLKPEDTAVYYCNVKDWGTNRQAYDYWGQGTQVTVSA
B7: in test [7], the binding result is on record as “no binding”.

B8: GroEL2 sybody number 1 (VHH)
VHH: QVQLVESGGGLVQAGGSLRLSCAASGFPVAITYMHWYRQAPGKEREWVAAISSTGKTTWYADSVKGRFTISRDNAKNTVYLQMNSLKPEDTAVYYCLVEVGHYYKGQGTQVTVSA
As to B8, in [8], the binding result was “no binding”.

B9: GroEL1 sybody number 9 (VHH)
VHH: QVQLVESGGGLVQAGGSLRLSCAASGLPVWQQGMTWYRQAPGKEREWVAAIDSVGAQTYYADSVKGRFTISRDNAKNTVYLQMNSLKPEDTAVYYCAVNVGARYIGQGTQVTVSA
Consider B9, for which, in [9], the binding result is “no binding”.

B10: GroEL2 sybody number 3 (VHH)
VHH: QVQLVESGGGLVQAGGSLRLSCAASGFPVAYWEMVWYRQAPGKEREWVAAIRSTGWKTVYADSVKGRFTISRDNAKNTVYLQMNSLKPEDTAVYYCTAVYVGVHYKGQGTQVTVSA
On to B10, for which the binding result in test [10] is listed as “no binding”.

B11: GroEL2 sybody number 9 (VHH)
VHH: QVQLVESGGGLVQAGGSLRLSCAASGFPVYQSWMYWYRQAPGKEREWVAAIMSDGSGTWYADSVKGRFTISRDNAKNTVYLQMNSLKPEDTAVYYCNVKDFGHSRSRYDYWGQGTQVTVSA
With B11, the binding result in test [11] was “no binding”.

B12: GroEL2 sybody number 31 (VHH)
VHH: B11 VHH with Y30W, Q31M, S32E, D54E, S56D, H103Y, S104N, R105N, S106N, R107Y
Consider B12, for which, in test [12], the binding entry is “no binding”.

B13: GroEL2 sybody number 33 (VHH)
VHH: B11 VHH with S32H, D54Q, S56A, K65R, F101L, H103K, S104A, R105E, S106Y, R107N
As for B13, in [13], the binding result is listed as “no binding”.

B14: GroEL2 sybody number 22 (VHH)
VHH: B11 VHH with Q31H, S56H, F101T, H103S, R105T, S106T, R107I
Take B14: in test [14], the binding entry was “no binding”.

B15: GroEL1 sybody number 1 (VHH)
VHH: QVQLVESGGGLVQAGGSLRLSCAASGFPVEQRQMYWYRQAPGKEREWVAAIQSYGKRTKYADSVKGRFTISRDNAKNTVYLQMNSLKPEDTAVYYCVVYVGGGYKGQGTQVTVSA
For the molecule B15, the binding result in [15] is “no binding”.

B16: GroEL2 sybody number 7 (VHH)
VHH: QVQLVESGGGLVQAGGSLRLSCAASGFPVNDAWMYWYRQAPGKEREWVAAIMSMGFGTWYADSVKGRFTISRDNAKNTVYLQMNSLKPEDTAVYYCNVKDRGKEHFSYDYWGQGTQVTVSA
B16: the binding entry in [16] was “no binding”.

B17: GroEL2 sybody number 8 (VHH)
VHH: B11 VHH with Q31M, D54E, S56A, F101T, H103S, S104F, R105H, S106A, R107Q
For the molecule B17, the binding entry in test [17] is recorded as “no binding”.

B18: GroEL1 sybody number 5 (VHH)
VHH: QVQLVESGGGLVQAGGSLRLSCAASGFPVEHKQMRWYRQAPGKEREWVAAIESSGQYTIYADSVKGRFTISRDNAKNTVYLQMNSLKPEDTAVYYCFVGVGAGYYGQGTQVTVSA
As for B18, the binding result in test [18] was “no binding”.

B19: GroEL2 sybody number 11 (VHH)
VHH: QVQLVESGGGLVQAGGSLRLSCAASGFPVDSAYMWWYRQAPGKEREWVAAIESNGEYTFYADSVKGRFTISRDNAKNTVYLQMNSLKPEDTAVYYCNVKDTGAHHSYYDYWGQGTQVTVSA
For the molecule B19, in test [19], the binding result is “no binding”.

B20: GroEL2 sybody number 27 (VHH)
VHH: B19 VHH with D30W, S31K, E56A, A103S, H104D, H105S, S106E, Y107N
On to B20, for which the binding result in [20] is recorded as “no binding”.

B21: GroEL2 sybody number 10 (VHH)
VHH: QVQLVESGGGLVQAGGSLRLSCAASGFPVKHWYMHWYRQAPGKEREWVAAIQSTGSYTAYADSVKGRFTISRDNAKNTVYLQMNSLKPEDTAVYYCNVKEYGFYHASYDYWGQGTQVTVSA
In the case of B21, in [21], the binding result is “no binding”.

B22: GroEL2 sybody number 19 (VHH)
VHH: QVQLVESGGGLVQAGGSLRLSCAASGFPVEWLEMAWYRQAPGKEREWVAAIYSYGMETEYADSVKGRFTISRDNAKNTVYLQMNSLKPEDTAVYYCNVKDGGHAAWWYDYWGQGTQVTVSA
With B22, in [22], the binding entry is recorded as “no binding”.
